We go through 30 compounds from PubChem BioAssay AID328 (DTP/NCI, 2004).

In the test the test system is BDF1 mice, P388 leukemia ip, median survival T/C. In words: NCI In Vivo Anticancer Drug Screen. Data for tumor model P388 Leukemia (intraperitoneal) in B6D2F1 (BDF1) mice. The note with it: higher T/C = longer survival. The essentials:
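T/C = treated-group survival ÷ vehicle-control survival; tumour transplanted into mice before dosing.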

Where [1] appears, read: T/C endpoint: median survival time, dose: 100.0 mg/kg/injection, schedule: Q04DX003 (ip), vehicle: saline with Tween-80.
Where [2] appears, read: T/C endpoint: median survival time, dose: 200.0 mg/kg/injection, schedule: Q04DX003 (ip), vehicle: other.
Setting [3] is: T/C endpoint: median survival time, dose: 400.0 mg/kg/injection, schedule: Q04DX003 (ip), vehicle: other.
Setting [4] is: T/C endpoint: median survival time, dose: 200.0 mg/kg/injection, schedule: Q01DX009 (ip), vehicle: saline with Tween-80.
Where [5] appears, read: T/C endpoint: median survival time, dose: 400.0 mg/kg/injection, schedule: Q04DX003 (ip), vehicle: saline with Tween-80.
The mark [6] stands for this setting: T/C endpoint: median survival time, dose: 50.0 mg/kg/injection, schedule: Q01DX005 (ip), vehicle: saline with Tween-80.
The mark [7] stands for this setting: T/C endpoint: median survival time, dose: 100.0 mg/kg/injection, schedule: Q01DX009 (ip), vehicle: saline with Tween-80.
Where [8] appears, read: T/C endpoint: median survival time, dose: 150.0 mg/kg/injection, schedule: Q01DX009 (ip), vehicle: saline with Tween-80.
[9] abbreviates: T/C endpoint: median survival time, dose: 400.0 mg/kg/injection, schedule: Q01DX009 (ip), vehicle: saline with Tween-80.
Setting [10] is: T/C endpoint: median survival time, dose: 200.0 mg/kg/injection, schedule: Q04DX003 (ip), vehicle: saline with Tween-80.

Structures are written as SMILES. The list shows only some results of the screen, not a fair sample: it is rich in T/C values a quarter to a half above the control, in often repeated tests (any T/C) and in doses without a T/C. Further doses and runs are listed elsewhere. T/C: endpoint of the treated group in % of that of the vehicle group. Some doses have a count of surviving animals in place of a T/C: the source files T/C as zero there, which appears to mark a toxic dose or a test without result, not a measured value. Some doses without a T/C left all or most animals alive at the check, yet need not have been tolerated: survival well below the control is almost never listed, so the zero probably covers shortened survival too. Counts of survivors are from the toxicity check (mostly the fifth day) where no day follows; animals may have died later. Schedule codes are those of the source, read here as Q, the interval in days (D) or hours (H), X, the number of doses. Some entries hold several experiments; the results are listed from low to high. For survival time, the PubChem record calls one and a half times the control and up active, and a quarter to a half above the control has no call in these data; cut-offs in other NCI protocols can differ. Counts like (3×) give the number of equal values in this list. Some T/C values are followed by the survivors on the day toxicity was checked, most often the fifth; without a count, all were alive then.

For `CC[C@]1(O)C[C@H](OC2CC(N(C)C)C(OC3CC(O)C(O)C(C)O3)C(C)O2)c2c(cc3c(c2O)C(=O)c2c(O)ccc(O)c2C3=O)[C@H]1C(=O)OC` (some centres undefined), the T/C was 128 and 129 % of control (T/C endpoint: median survival time, dose: 0.2 mg/kg/injection, schedule: Q01DX009 (ip), vehicle: Klucel (hydroxypropylcellulose) (HPC)); 134 % of control (T/C endpoint: median survival time, dose: 0.4 mg/kg/injection, schedule: Q01DX009 (ip), vehicle: Klucel (hydroxypropylcellulose) (HPC)). For the same compound, the survivor count (T/C endpoint: median survival time, dose: 16.0 mg/kg/injection, schedule: Q04DX003 (ip), vehicle: other) is listed as 8 of 8.

In the case of `CCO/C=C1\SC(=S)N(Cc2ccccc2)C1=O`, the survivor count by setting is: (T/C endpoint: median survival time, dose: 50.0 mg/kg/injection, schedule: Q01DX009 (ip), vehicle: other) 3 of 6; (T/C endpoint: median survival time, dose: 66.0 mg/kg/injection, schedule: Q04DX003 (ip), vehicle: saline + alcohol) 6 of 6; under setting [2], 6 of 6; under setting [3], 3 of 6. In addition, the T/C runs as follows: (T/C endpoint: median survival time, dose: 66.0 mg/kg/injection, schedule: Q04DX003 (ip), vehicle: other) 127 % of control; (T/C endpoint: median survival time, dose: 66.0 mg/kg/injection, schedule: Q04DX003 (ip), vehicle: saline with Tween-80) 136 % of control; (T/C endpoint: median survival time, dose: 100.0 mg/kg/injection, schedule: Q04DX003 (ip), vehicle: other) 127 % of control (2×); under setting [1], 127 % of control.

Regarding `COC(=O)c1cccc(OP(=O)(N(C)C)N(C)C)c1`, the survivor count under setting [4] is given as 0 of 6.

For `COc1ccc(/C=C/c2ccc3ccccc3n2)c(OC)c1`, the survivor count under setting [5] was 6 of 6.

In the case of `CCOC(=O)c1sc2nc(C)cc(C)c2c1N`, under setting [6], the survivor count is reported as 5 of 5.

With `CCO/C=C(\C#N)C(=O)O`, the survivor count under setting [7] is on record as 6 of 6.

With `COC1NC(=O)NC(=O)C1=[N+]=[N-]` (centres undefined), the T/C (T/C endpoint: median survival time, dose: 7.5 mg/kg/injection, schedule: Q01DX009 (ip), vehicle: saline with Tween-80) is 137 % of control.

With `CC1(C)COCN1CN1COCC1(C)C`, for the setting “T/C endpoint: median survival time, dose: 200.0 mg/kg/injection, schedule: Q04DX003 (ip), vehicle: saline”, the survivor count is 3 of 6.

For `CC(C)=C=CCN(C)Cc1ccccc1`, the survivor count (T/C endpoint: median survival time, dose: 200.0 mg/kg/injection, schedule: Q01DX009 (ip), vehicle: saline) is 0 of 6.

With `CN(C)CCCNC(=O)c1ccc2c(c1O)C(=O)c1ccccc1C2=O`, the survivor count runs as follows: (T/C endpoint: median survival time, dose: 100.0 mg/kg/injection, schedule: Q01DX005 (ip), vehicle: saline) 6 of 6; (T/C endpoint: median survival time, dose: 200.0 mg/kg/injection, schedule: Q01DX005 (ip), vehicle: saline) 0 of 6.

As for `CCN=NNc1ccc(C)cc1`, the T/C (T/C endpoint: median survival time, dose: 33.0 mg/kg/injection, schedule: Q01DX009 (ip), vehicle: saline with Tween-80) is 127 % of control [5 of 6 alive] and the T/C under setting [8] was 129 % of control. Also, the survivor count reads like this: (T/C endpoint: median survival time, dose: 66.0 mg/kg/injection, schedule: Q01DX009 (ip), vehicle: saline with Tween-80) 2 of 6; under setting [7], 0 of 6; under setting [8], 0 of 6.

In the case of `CC(=O)C(c1ccccc1)[N+](C)(C)C` (centres undefined), the survivor count under setting [2] is 2 of 6 and the survivor count under setting [3] was 0 of 6.

As to `O=[N+]([O-])c1ccc(/C=N\Nc2ccc([N+](=O)[O-])cn2)cc1`, the survivor count under setting [9] was 4 of 6.

As to `NC(=S)c1ccc[n+](Cc2c(Cl)cccc2Cl)c1`, the survivor count (T/C endpoint: median survival time, dose: 200.0 mg/kg/injection, schedule: Q04DX002 (ip), vehicle: saline with Tween-80) was 0 of 6.

On to `CCOC(=O)N1CCN(CCCCCOc2ccc(CC(C)(C)C)cc2Cl)CC1`, for which, under setting [4], the T/C is 126 % of control [5 of 6 alive].

For the compound `CCN(CC)CCCC(C)NC(=O)c1cccc2c([N+](=O)[O-])cccc12` (centres undefined), where the note is “T/C endpoint: mean survival time, dose: 6.25 mg/kg/injection, schedule: Q01DX009 (ip), vehicle: water”, the survivor count is recorded as 6 of 6.

`O=c1c2ccc(Cl)cc2[nH]c2ccc(Cl)cc12`: the survivor count under setting [10] is 2 of 6.

Turning to `Cc1nc(N)c(N)nc1C`, the survivor count is 5 of 6 (T/C endpoint: median survival time, dose: 75.0 mg/kg/injection, schedule: Q01DX009 (ip), vehicle: saline with Tween-80); 3 of 6 under setting [1]; 0 of 6 under setting [10].

Turning to `CC(=O)Nc1cc(N(CCOS(C)(=O)=O)CCOS(C)(=O)=O)ccc1N=O`, the survivor count reads like this: (T/C endpoint: median survival time, dose: 0.62 mg/kg/injection, schedule: Q01DX009 (ip), vehicle: saline) 5 of 6; (T/C endpoint: median survival time, dose: 1.25 mg/kg/injection, schedule: Q01DX009 (ip), vehicle: saline) 4 of 6; (T/C endpoint: median survival time, dose: 2.5 mg/kg/injection, schedule: Q01DX009 (ip), vehicle: saline) 3 of 6. Further, the T/C is, setting by setting: (T/C endpoint: median survival time, dose: 2.5 mg/kg/injection, schedule: Q04DX003 (ip), vehicle: saline with Tween-80) 133 % of control; (T/C endpoint: median survival time, dose: 3.75 mg/kg/injection, schedule: Q04DX003 (ip), vehicle: saline with Tween-80) 129 % of control.

For `CCCCCCCCCCCCCC(=O)CC`, the survivor count (T/C endpoint: median survival time, dose: 300.0 mg/kg/injection, schedule: Q04DX003 (ip), vehicle: saline with Tween-80) is 6 of 6.

Take `Cc1ccc(C)c(NC(=O)c2ccc(Cl)cc2Cl)c1`: the survivor count (T/C endpoint: median survival time, dose: 300.0 mg/kg/injection, schedule: Q01DX001 (ip), vehicle: other) is on record as 6 of 6.

For the compound `CCOC(=O)c1c[nH]c(=O)c([N+](=O)[O-])c1O`, the survivor count is, setting by setting: under setting [4], 6 of 6; under setting [9], 6 of 6.

Take `CCC(=N\NC(=S)NCCN(CC)CC)/C(C)=N/NC(=S)NCCN(CC)CC`: the T/C is, setting by setting: (T/C endpoint: median survival time, dose: 3.13 mg/kg/injection, schedule: Q01DX009 (ip), vehicle: saline) 130 % of control; (T/C endpoint: median survival time, dose: 6.25 mg/kg/injection, schedule: Q01DX009 (ip), vehicle: saline) 130 % of control.

`ClCCCCCCCCc1ccccc1`: the T/C runs as follows: under setting [1], 127 % of control; (T/C endpoint: median survival time, dose: 150.0 mg/kg/injection, schedule: Q04DX003 (ip), vehicle: saline with Tween-80) 127 % of control; under setting [10], 127 % of control; (T/C endpoint: median survival time, dose: 400.0 mg/kg/injection, schedule: Q01DX009 (ip), vehicle: saline) 125 % of control; under setting [5], 131 % of control.

Consider `CC(C)(C)CC(=O)OCCC[N+](C)(C)C`, for which the survivor count (T/C endpoint: median survival time, dose: 100.0 mg/kg/injection, schedule: Q01DX009 (ip), vehicle: water) is recorded as 2 of 4.

Consider `CC(=N\O)/C(=N\O)C(=O)c1ccccc1`, for which the survivor count by setting is: (T/C endpoint: median survival time, dose: 200.0 mg/kg/injection, schedule: Q01DX009 (ip), vehicle: other) 5 of 6; (T/C endpoint: median survival time, dose: 400.0 mg/kg/injection, schedule: Q01DX009 (ip), vehicle: other) 4 of 6.

As for `c1ccc(Oc2c3ccccc3nc3ccccc23)cc1`, the T/C is, setting by setting: (T/C endpoint: median survival time, dose: 25.0 mg/kg/injection, schedule: Q01DX005 (ip), vehicle: saline with Tween-80) 128 % of control; under setting [6], 131 % of control; (T/C endpoint: median survival time, dose: 100.0 mg/kg/injection, schedule: Q01DX005 (ip), vehicle: saline with Tween-80) 128 and 142 % of control. Further, the survivor count (T/C endpoint: median survival time, dose: 200.0 mg/kg/injection, schedule: Q01DX005 (ip), vehicle: saline with Tween-80) is 0 of 5 and 2 of 5.

For `COc1cccc2c1C(=O)c1c(O)c3c(c(O)c1C2=O)C[C@@](O)(C(=O)CO)C[C@@H]3OC1CC(NC(C)=O)C(O)C(C)O1` (some centres undefined), the T/C is 128 % of control (T/C endpoint: median survival time, dose: 50.0 mg/kg/injection, schedule: Q04DX009 (ip), vehicle: other) and 146 % of control (T/C endpoint: median survival time, dose: 400.0 mg/kg/injection, schedule: Q04DX009 (ip), vehicle: other).

As to `CC1CC2=CC(=O)C=CC2(C)C2CCC3(C)C(O)CCC3C12` (centres undefined), the survivor count is, setting by setting: (T/C endpoint: median survival time, dose: 12.5 mg/kg/injection, schedule: Q01DX009 (ip), vehicle: saline) 3 of 3; (T/C endpoint: median survival time, dose: 25.0 mg/kg/injection, schedule: Q01DX009 (ip), vehicle: saline) 3 of 3; (T/C endpoint: median survival time, dose: 100.0 mg/kg/injection, schedule: Q01DX009 (ip), vehicle: Klucel (hydroxypropylcellulose) (HPC)) 4 of 6.

With `Nc1nc(-c2ccccc2)ns1`, the survivor count (T/C endpoint: median survival time, dose: 100.0 mg/kg/injection, schedule: Q01DX009 (ip), vehicle: saline sonified) is 2 of 6.
